At least one read-out could not be matched to a standard name with certainty.
These compounds were tested on Micrococcus sedentarius NCIMB 40287 (assay: Antibiotic sensitivities by the disc method). Conditions: disc amount as printed per antibiotic (1 unit, 5-30 μg).
Format: cell-based

SMILES	Antibiotic sensitivity
CC[C@H]1OC(=O)[C@H](C)[C@@H](O[C@H]2C[C@@](C)(OC)[C@@H](O)[C@H](C)O2)[C@H](C)[C@@H](O[C@@H]2O[C@H](C)C[C@H](N(C)C)[C@H]2O)[C@](C)(O)C[C@@H](C)C(=O)[C@H](C)[C@@H](O)[C@]1(C)O [Erythromycin]	S
CN(C)[C@@H]1C(O)=C(C(N)=O)C(=O)[C@@]2(O)C(O)=C3C(=O)c4c(O)cccc4[C@@](C)(O)[C@H]3C[C@@H]12 [Tetracycline]	S
O=C(N[C@H](CO)[C@H](O)c1ccc([N+](=O)[O-])cc1)C(Cl)Cl [Chloramphenicol]	S
CO[C@@H]1[C@@H](OC(N)=O)[C@@H](O)[C@H](Oc2ccc3c(O)c(NC(=O)c4ccc(O)c(CC=C(C)C)c4)c(=O)oc3c2C)OC1(C)C [Novobiocin]	S
NC[C@H]1O[C@H](O[C@H]2[C@H](O)[C@@H](O[C@H]3O[C@H](CO)[C@@H](O)[C@H](N)[C@H]3O)[C@H](N)C[C@@H]2N)[C@H](O)[C@@H](O)[C@@H]1O [Kanamycin]	S
[H]/N=C(/N)N[C@H]1[C@H](O)[C@@H](O)[C@H](O[C@@H]2O[C@@H](C)[C@](O)(C=O)[C@H]2O[C@@H]2O[C@@H](CO)[C@H](O)[C@@H](O)[C@@H]2NC)[C@@H](N/C(N)=N\[H])[C@@H]1O [Streptomycin]	S
CC1(C)S[C@@H]2[C@H](NC(=O)Cc3ccccc3)C(=O)N2[C@H]1C(=O)O [Penicillin]	R
